Reference: publication PMC5716589, “The nucleoid as a scaffold for the assembly of bacterial signaling complexes” (PLoS Genetics, 2017)

Key:
[1] = target: T1, 6His-FrzCDΔ7-27 del7-27 (UniProt P43500); assay: BLI; settings: protein immobilized, 38 nM DNA, detectable but severely impaired; BLI: PBS pH 7.5, 0.001% Tween-20, 25 C (6His-FrzCDΔ1-130 used as reference subtraction); recombinant protein; residues 1-417; protein details: 6His; probe letters rebuilt from the primers and the genome
T1 sequence (looked up): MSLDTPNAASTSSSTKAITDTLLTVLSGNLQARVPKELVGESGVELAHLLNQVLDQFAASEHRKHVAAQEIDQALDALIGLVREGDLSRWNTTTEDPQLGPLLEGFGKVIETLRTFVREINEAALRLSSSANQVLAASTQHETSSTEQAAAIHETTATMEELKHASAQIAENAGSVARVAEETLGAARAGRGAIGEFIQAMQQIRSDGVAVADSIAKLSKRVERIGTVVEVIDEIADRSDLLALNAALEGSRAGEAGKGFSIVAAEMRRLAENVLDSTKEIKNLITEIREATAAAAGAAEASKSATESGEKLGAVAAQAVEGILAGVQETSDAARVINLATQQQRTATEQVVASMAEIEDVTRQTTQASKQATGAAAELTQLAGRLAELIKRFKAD

[2] = target: T2, 6His-FrzCD (UniProt P43500); assay: BLI; settings: protein immobilized, 38 nM DNA, not fitted by 1:1 model, no Kd; BLI: PBS pH 7.5, 0.001% Tween-20, 25 C (6His-FrzCDΔ1-130 used as reference subtraction); recombinant protein; residues 1-417; protein details: 6His; probe letters rebuilt from the primers and the genome
T2 sequence (looked up): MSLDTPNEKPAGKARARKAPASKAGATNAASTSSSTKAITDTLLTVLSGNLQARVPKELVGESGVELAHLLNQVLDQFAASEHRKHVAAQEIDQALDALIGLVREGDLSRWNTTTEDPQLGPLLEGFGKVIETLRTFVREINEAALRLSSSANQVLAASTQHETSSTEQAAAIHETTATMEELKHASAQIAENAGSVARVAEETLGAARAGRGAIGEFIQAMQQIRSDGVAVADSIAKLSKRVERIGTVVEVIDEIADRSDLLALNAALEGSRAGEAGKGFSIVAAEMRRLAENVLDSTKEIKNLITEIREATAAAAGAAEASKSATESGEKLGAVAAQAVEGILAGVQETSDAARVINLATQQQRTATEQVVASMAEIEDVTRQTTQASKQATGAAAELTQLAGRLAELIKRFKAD

[3] = target: T3, 6His-FrzCDΔ1-130 del1-130 (UniProt P43500); assay: EMSA; settings: 10 nM DNA, EMSA Fig 3: 10 mM Tris-HCl pH 8, 60 mM NaCl, 10% glycerol, 4 C, 40 min, EMSA S4 Fig: 50 mM Tris pH 7.4, 50 mM NaCl, 1 mM DTT, 25 C, 20 min, recombinant protein, residues 131-417, protein details: 6His, probe letters rebuilt from the primers and the genome
T3 sequence (looked up): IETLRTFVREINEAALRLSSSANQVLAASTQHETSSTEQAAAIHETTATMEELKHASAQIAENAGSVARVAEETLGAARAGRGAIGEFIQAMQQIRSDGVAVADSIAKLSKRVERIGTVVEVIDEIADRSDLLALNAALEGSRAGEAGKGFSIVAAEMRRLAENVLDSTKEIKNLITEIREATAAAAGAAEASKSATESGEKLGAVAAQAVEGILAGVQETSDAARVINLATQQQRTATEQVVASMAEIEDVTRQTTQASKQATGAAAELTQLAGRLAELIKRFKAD

[4] = target: T2, 6His-FrzCD; assay: EMSA; settings: 10 nM DNA, EMSA Fig 3: 10 mM Tris-HCl pH 8, 60 mM NaCl, 10% glycerol, 4 C, 40 min, EMSA S4 Fig: 50 mM Tris pH 7.4, 50 mM NaCl, 1 mM DTT, 25 C, 20 min, recombinant protein, residues 1-417, protein details: 6His, probe letters rebuilt from the primers and the genome

TCACGCGGGCTCCGGCTCCTGCGGCGCGGCCAGGGCGGCATCCAGCTCCAGGGCCTCGGCCTCGGACAGGAAGGTGCGCAGGTCATGGACCAGGACGAGCCCGTCCTTCAGCTTCACGGCGCCCGCCACATAGCCCACGCCCGGAAGCTGGCGCGGCGTGGCGTCCCACTCATCCGGTGTGAGGACGCGCAGGCCCTCGGCCCGGTCCACGCGCAGCACGACGCAGCGGTCGCCCGCGGAGGCCACGATGAAGTGATCCATGGGGGACAGCGGGCGGGGCGGGTGGCGGAAGCGCAGGCGCAGGTCCAGCACCGGCAGCAGCTCCCCCCGAAGGTCCAGCAGGCCCTCCACCACGGCGGGCGCGCGAGGGAGCGGCGTCAGGCGCGCAGCGCGTACCAACTCGCGCACGTCGGGTGCGGGCAGTCCGTAGCGCTGGCCGTTCAGGGTGAACAGCAGCACCTCCGTGGGTGCGGGGGTCT (double strand) [474 bp BLI fragment]
binding result [1]: binds more weakly | binding result [2]: binds

CGGGATCCTGGCTCCGCCCCCGACGCAGGCCCCCGTGGCCGAGCCGGGGGCGCACGCCGCCGCAGCCGCGCCTCACCCGGCTGCCGCGCATGGCCGTGACGAGGAGGCCCCGAGCGCCGCGAAGTCCGCGGTGGCCGACCGGAGCATCCGCGTCAACGTGGAGGTGCTCGACGCGTTGGGGTTGCTCGCGGGCGACCTGCTGGTGGAGAGCGCCCGCGGCCGGCTGCGCAGCTCGGAGACGGAGGCGTTGTTCGAGCGCTTCAGCCGCCTGGGGGACCGCTTCCTCCGGCTGGCGGAAGAGATCGACATCTCGAACGAGGTGCGTGAGCAGTTGGACCGCGTGGAGAGCGACCTCCACATGCTGCGCGACGACGCGTTCCGCTTCGTGCGCCGCAACGACGACGGCATCAACACGCTGCACGGCAACCTGGCGAAGATGGCGGACCACGTGGCCGAGGCCCGGCTGGTGCCGCTGTCCACCGTGTTCGACGCCTTCCCGCGCGCCGTTCGCGAGATGTCGCGCACGCAGGGCAAGGAAGTGGACCTGGTCATCGAGAACGCCGACATCGGCGTGGACCGGTCCATGCTGGGCGACGTGCGAGACGCGCTGGTGCACCTGCTGCGCAACTCGGTGGACCACGGCGTGGAGTCCCCGGACACGCGCCAGCAGTTGGGCAAGCCGCTCAACGGCCGCATCCGCATCCGCGTGCGCGTGGACGGCGACATGCTCCACATCGAGGTGGAGGACGACGGCCGCGGCATCGACCCGGAGCGGCTGCGTCAGGCGGCCATCTCCAAGCGCCTCATCAAAAGCTTGGG (double strand) [Oligo801]
binding result [3]: no binding | binding result [4]: binds

For some of these results: No signal at the amounts used counts as a negative. Protein sequences can lack the tags named with them. For some of these results: Weaker means in comparison with the reference protein, sequence or condition of that experiment.
